Measured values: paper PMC4675091
Results are given in words; binding and its absence hold for the method and conditions named. In cells and extracts the contact can be indirect. Some results given as binding are weak or reduced against the parent protein; the word gives no strength. For some of these results: Sequences can lack the tags named with a protein.

Amino acid sequences for entries named in this document (tags omitted).
UniProt P35612: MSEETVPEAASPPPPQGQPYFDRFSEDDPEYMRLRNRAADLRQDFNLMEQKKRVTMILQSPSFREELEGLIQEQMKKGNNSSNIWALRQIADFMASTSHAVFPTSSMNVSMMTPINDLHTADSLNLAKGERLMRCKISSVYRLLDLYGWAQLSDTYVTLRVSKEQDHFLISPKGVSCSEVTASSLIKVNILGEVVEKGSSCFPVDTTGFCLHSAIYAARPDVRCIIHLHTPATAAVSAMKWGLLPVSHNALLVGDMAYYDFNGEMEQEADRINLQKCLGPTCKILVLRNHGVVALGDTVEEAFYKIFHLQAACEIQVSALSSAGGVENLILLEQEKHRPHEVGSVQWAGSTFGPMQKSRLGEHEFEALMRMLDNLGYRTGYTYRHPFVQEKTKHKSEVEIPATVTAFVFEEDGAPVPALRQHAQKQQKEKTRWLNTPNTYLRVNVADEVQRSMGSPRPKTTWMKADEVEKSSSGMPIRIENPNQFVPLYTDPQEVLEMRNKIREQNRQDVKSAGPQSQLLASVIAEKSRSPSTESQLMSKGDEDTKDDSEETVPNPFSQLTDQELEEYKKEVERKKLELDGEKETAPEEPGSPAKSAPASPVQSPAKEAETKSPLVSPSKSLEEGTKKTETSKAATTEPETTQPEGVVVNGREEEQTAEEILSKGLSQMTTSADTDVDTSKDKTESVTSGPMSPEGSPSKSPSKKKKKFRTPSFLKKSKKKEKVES

T1: DARPP-32-GFP (BAC transgenic mice) (mouse) (UniProt Q60829)
T1 sequence: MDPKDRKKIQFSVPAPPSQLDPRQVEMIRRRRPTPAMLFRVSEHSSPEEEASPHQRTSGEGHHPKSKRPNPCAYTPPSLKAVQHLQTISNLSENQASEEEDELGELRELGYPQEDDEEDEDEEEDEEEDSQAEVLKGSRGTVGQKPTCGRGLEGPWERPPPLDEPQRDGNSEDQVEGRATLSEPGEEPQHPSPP

T2: purified rat DARPP-32 (rat) (UniProt Q6J4I0)
T2 sequence: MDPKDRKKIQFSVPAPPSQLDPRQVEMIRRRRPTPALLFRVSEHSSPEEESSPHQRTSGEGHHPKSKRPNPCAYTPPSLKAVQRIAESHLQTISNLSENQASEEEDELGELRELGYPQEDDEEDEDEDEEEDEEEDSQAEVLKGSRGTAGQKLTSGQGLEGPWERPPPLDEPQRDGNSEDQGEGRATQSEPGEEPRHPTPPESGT


How the values were obtained:
[1] = biological target: myc-tagged full-length β-adducin (human) (UniProt P35612); test: pull-down; beads coated with myc-β-adducin (from COS-7 lysate) incubated 2 h at 4 °C with purified recombinant DARPP-32 phosphorylated or not by CK2; immunoblot for DARPP-32; only the binder purified
[2] = biological target: T1, DARPP-32-GFP (BAC transgenic mice) (mouse); test: co-IP; striatal lysates (RIPA buffer) of DARPP-32-GFP transgenic mice and WT littermates; GFP-trap resin, 2 h at 4 °C; immunoblot for β-adducin
[3] = biological target: T2, purified rat DARPP-32 (rat); test: pull-down; Sepharose coupled to purified recombinant DARPP-32 or casein, rat striatal lysate; eluted with 150 mM NaCl; immunoblot for β-adducin; only the target purified

binding [1]	Binder	other results
binds	purified recombinant DARPP-32 phosphorylated by CK2 (protein, UniProt Q6J4I0 1-205, phosphoserine at Ser97 (by CK2)) MDPKDRKKIQFSVPAPPSQLDPRQVEMIRRRRPTPALLFRVSEHSSPEEESSPHQRTSGEGHHPKSKRPNPCAYTPPSLKAVQRIAESHLQTISNLSENQASEEEDELGELRELGYPQEDDEEDEDEDEEEDEEEDSQAEVLKGSRGTAGQKLTSGQGLEGPWERPPPLDEPQRDGNSEDQGEGRATQSEPGEEPRHPTPPESGT	–
binds	purified rat DARPP-32 (protein, UniProt Q6J4I0 1-205) MDPKDRKKIQFSVPAPPSQLDPRQVEMIRRRRPTPALLFRVSEHSSPEEESSPHQRTSGEGHHPKSKRPNPCAYTPPSLKAVQRIAESHLQTISNLSENQASEEEDELGELRELGYPQEDDEEDEDEDEEEDEEEDSQAEVLKGSRGTAGQKLTSGQGLEGPWERPPPLDEPQRDGNSEDQGEGRATQSEPGEEPRHPTPPESGT	–
–	β-adducin (mouse striatal lysate) (protein, UniProt Q9QYB8 1-725) MSEDTVPEAASPPPSQGQHYFDRFSEDDPEYLRLRNRAADLRQDFNLMEQKKRVTMILQSPSFREELEGLIQEQMKKGNNSSNIWALRQIADFMASTSHAVFPASSMNFSMMTPINDLHTADSLNLAKGERLMRCKISSVYRLLDLYGWAQLSDTYVTLRVSKEQDHFLISPKGVSCSEVTASSLIKVNILGEVVEKGSSCFPVDTTGFSLHSAIYAARPDVRCAIHLHTPATAAVSAMKCGLLPVSHNALLVGDMAYYDFNGEMEQEADRINLQKCLGPTCKILVLRNHGMVALGDTVEEAFYKVFHLQAACEVQVSALSSAGGTENLILLEQEKHRPHEVGSVQWAGSTFGPMQKSRLGEHEFEALMRMLDNLGYRTGYTYRHPFVQEKTKHKSEVEIPATVTAFVFEEDGVPVPALRQHAQKQQKEKTRWLNTPNTYLRVNVADEVQRNMGSPRPKTTWMKADEVEKSSSGMPIRIENPNQFVPLYTDPQEVLDMRNKIREQNRQDIKSAGPQSQLLASVIAEKSRSPSTESQLMSKGDADTKDESEETVPNPFSQLTDQELEEYKKEVERKKLEQEQEGEKDIATEKPGSPVKSTPASPVQSPSKAGTKSPAVSPSKTSEDTKKTEVSEANTEPEPVKPEGLVVNGKEEEPSVEEALSKGLGQMTTNADTDGDSYKDKTESVTSGPLSPEGSPSKSPSKKKKKFRTPSFLKKSKKKEKVES	binding [2]: binds
–	β-adducin (rat striatal lysate) (protein, UniProt Q05764 1-725) MSEDTVPEAASPPPSQGQHYFDRFSEDDPEYLRLRNRAADLRQDFNLMEQKKRVTMILQSPSFREELEGLIQEQMKKGNNSSNIWALRQIADFMASTSHAVFPASSMNFSMMTPINDLHTADSLNLAKGERLMRCKISSVYRLLDLYGWAQLSDTYVTLRVSKEQDHFLISPKGVSCSEVTASSLIKVNILGEVVEKGSSCFPVDTTGFSLHSAIYAARPDVRCAIHLHTPATAAVSAMKCGLLPVSHNALLVGDMAYYDFNGEMEQEADRINLQKCLGPTCKILVLRNHGMVALGDTVEEAFYKVFHLQAACEVQVSALSSAGGTENLILLEQEKHRPHEVGSVQWAGSTFGPMQKSRLGEHEFEALMRMLDNLGYRTGYTYRHPFVQEKTKHKSEVEIPATVTAFVFEEDGVPVPALRQHAQKQQKEKTRWLNTPNTYLRVNVADEVQRNMGSPRPKTTWMKADEVEKSSSGMPIRIENPNQFVPLYTDPQEVLDMRNKIREQNRQDIKSAGPQSQLLASVIAEKSRSPSTESQLASKGDADTKDELEETVPNPFSQLTDQELEEYKKEVERKKLEQEQEGEKDAATEEPGSPVKSTPASPVQSPTRAGTKSPAVSPSKASEDAKKTEVSEANTEPEPEKPEGVVVNGKEEEPCVEEVLSKGPGQMTTNADTDGDSYKDKTESVTSGPLSPEGSPSKSPSKKKKKFRTPSFLKKSKKKEKVES	binding [3]: binds
